From article PMC7648083
No constants are given. Whether binding was seen depends on the method and setting. For some assays here: Binding seen in cells or lysates may run through a third protein. Some entries that bind do so weakly or less than the wild type. For some assays here: Tags and fused reporters may be left off the sequences shown.

Amino acid sequences for entries named in this document (tags omitted).
UniProt P35639: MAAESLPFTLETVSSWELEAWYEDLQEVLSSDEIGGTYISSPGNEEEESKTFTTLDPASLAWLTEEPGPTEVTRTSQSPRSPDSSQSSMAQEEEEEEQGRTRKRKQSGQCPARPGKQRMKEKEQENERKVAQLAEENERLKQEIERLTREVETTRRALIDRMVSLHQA

B1: F-box only protein 15 (FBXO15) full-length protein, pGADT7-FBXO15 (protein, UniProt Q9QZN0 1-433)
chain: MPSEILVKILSYLDAVTLVCIGCVSRRFYHLADDNLIWVRKYAAAFRSKRSRWKATSVEETATSLSLLSVWDKEDGYWKKEYITKQISSVRAALTNSLSPVKRRTSLPSKTKESLRISGLGWTIILREASGKEHIMQHSNLSVNDNSVTVFWHDKNWPHVDTLSTLDLYGATPIFMEQYKGPNTSCPRWLSLIEKYDLSNLRKSAMIGCDRHVRVFCVNPGLLVGLWQENGGLAFVMANIHSHGLFERSIMGSDTIPYTLPPDTTFVDNYPDSMTFYGDKGFQLHIDIHGSKTYFLCSTFHNLFCRRAGINNGYVKFLMINLKNNREHLPLVGKVGLEWRTDCLNGRIESCIVVDMTLLDEDKKPIWYVSSPVCLRSACLPDFPQPAYSFEYMDSVGGVCADLGWFENTDEYFIVRLDIYLSVAKLQQWFGRQ
B2: FBXO15-HA (protein, UniProt Q9QZN0 1-433)
chain: B1 chain

Columns and labels:
[1] = biological target: C/EBP-homologous protein (CHOP), GAL4 DNA binding domain fusion (pGBKT7-CHOP) (UniProt P35639); test: two-hybrid; paired test: pGBKT7-CHOP and pGADT7-FBXO15 co-transformed in AH109; growth on SD-WL at 28 C for 3 days, then SD-WLAH; X-Gal overlay for lacZ activity
[2] = biological target: CHOP-FLAG (UniProt P35639); test: co-IP; Raw264.7 cells transfected with CHOP-FLAG and FBXO15-HA, treated with MG132 (2 uM) for 24 h; immunoprecipitation with anti-FLAG, immunoblotting with anti-HA and anti-FLAG

Binder	binding [1]	binding [2]
B1	binds	
B2		binds
